Record: PubChem BioAssay AID1259283 (Sanger Institute, 2017)
The deposit covers 794 reagents; this is an unselected part. 14 of all reagents (1.8%) were called active. 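Calls reflect only viability loss without drug; drug synergy does not enter the call.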 Viability is capped at 1. Not all columns of the deposit are shown. Not stated in the record: the amount of reagent, the time to read-out.

- Aim: 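Kinases whose silencing adds to targeted drugs in killing colon cancer cells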 (primary screen)
- Cell system: HT115 colorectal cancer cells
- Knock-down reagent: siRNA pool against human genes
- Conditions: anchor drug given one day after siRNA: BYL719 at 1 µM, cetuximab at 5 µg/ml, trametinib at 10 nM, or DMSO vehicle alone
- Measured: 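Viability normalised to non-targeting pool #2 wells and averaged over replicates, robust z-score against control wells, and a synergy score for each of three drugs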
- Scale: robust z-score, knock-down alone: higher = more viable cells after knock-down; viability, DMSO vs non-targeting control: higher = more viable cells
- Rule for the call: 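a gene counts as essential when its robust z-score with knock-down alone is below -3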
- Calls: active = essential (z below -3, no drug); inactive = no change without drug

target gene | robust z-score, knock-down alone | viability, DMSO vs non-targeting control (fraction of control) | Call
PKLR (pyruvate kinase L/R) | 0.239 | 0.949 | inactive
CAMK4 (calcium/calmodulin dependent protein kinase IV) | 0.395 | 0.964 | inactive
FLT4 (fms related receptor tyrosine kinase 4) | -0.616 | 0.87 | inactive
STK39 (serine/threonine kinase 39) | -3.19 | 0.632 | active
TP53RK (TP53 regulating kinase) | 0.717 | 0.993 | inactive
GNAS (GNAS complex locus) | 0.22 | 0.947 | inactive
UCKL1 (uridine-cytidine kinase 1 like 1) | 0.789 | 1 | inactive
TTBK2 (tau tubulin kinase 2) | -0.539 | 0.877 | inactive
PKN2 (protein kinase N2) | -0.589 | 0.873 | inactive
VRK2 (VRK serine/threonine kinase 2) | 0.299 | 0.955 | inactive
PSKH1 (protein serine kinase H1) | 0.627 | 0.985 | inactive
PIK3CG | 0.789 | 1 | inactive
PFKP (phosphofructokinase, platelet) | -0.666 | 0.866 | inactive
NRBP2 (nuclear receptor binding protein 2) | -1.01 | 0.833 | inactive
SMG1 | -3.43 | 0.61 | active
FGFR2 (fibroblast growth factor receptor 2) | -0.177 | 0.911 | inactive
BRAF (B-Raf proto-oncogene, serine/threonine kinase) | -1.14 | 0.822 | inactive
NIM1K (NIM1 serine/threonine protein kinase) | -0.221 | 0.907 | inactive
NEK4 (NIMA related kinase 4) | 0.789 | 1 | inactive
PRKCD (protein kinase C delta) | 0.0517 | 0.932 | inactive
ADCK1 (aarF domain containing kinase 1) | 0.634 | 0.986 | inactive
COMMD3 (COMM domain containing 3) | 0.0442 | 0.931 | inactive
FN3K (fructosamine 3 kinase) | 0.147 | 0.941 | inactive
MAP2K6 (mitogen-activated protein kinase kinase 6) | 0.789 | 1 | inactive
GRK2 (G protein-coupled receptor kinase 2) | 0.0744 | 0.934 | inactive
BCKDK (branched chain keto acid dehydrogenase kinase) | 0.789 | 1 | inactive
MSR1 (macrophage scavenger receptor 1) | 0.789 | 1 | inactive
CIT (citron rho-interacting serine/threonine kinase) | 0.108 | 0.937 | inactive
EPHA2 (EPH receptor A2) | 0.789 | 1 | inactive
IKBKG | 0.187 | 0.944 | inactive
GOLGA5 (golgin A5) | 0.536 | 0.977 | inactive
PRKAR1A | 0.789 | 1 | inactive
PRKY (protein kinase Y-linked (pseudogene)) | -0.252 | 0.904 | inactive
BMP2K (BMP2 inducible kinase) | -0.59 | 0.873 | inactive
PRKAA2 (protein kinase AMP-activated catalytic subunit alpha 2) | 0.544 | 0.977 | inactive
STK10 (serine/threonine kinase 10) | 0.26 | 0.951 | inactive
CHEK2 (checkpoint kinase 2) | 0.789 | 1 | inactive
PDPK1 (3-phosphoinositide dependent protein kinase 1) | -0.437 | 0.887 | inactive
MAGI3 | 0.789 | 1 | inactive
EPHA10 (EPH receptor A10) | -1.58 | 0.781 | inactive
ROCK2 (Rho associated coiled-coil containing protein kinase 2) | -0.769 | 0.856 | inactive
CREBBP (CREB binding lysine acetyltransferase) | -0.759 | 0.857 | inactive
TYRO3 (TYRO3 protein tyrosine kinase) | 0.789 | 1 | inactive
ACVR1C (activin A receptor type 1C) | 0.789 | 1 | inactive
TRPM6 | 0.789 | 1 | inactive
CALM1 (calmodulin 1) | 0.631 | 0.985 | inactive
OXSR1 (oxidative stress responsive kinase 1) | 0.612 | 0.984 | inactive
MVK (mevalonate kinase) | 0.789 | 1 | inactive
CDK7 (cyclin dependent kinase 7) | 0.789 | 1 | inactive
PHKA1 (phosphorylase kinase regulatory subunit alpha 1) | 0.789 | 1 | inactive
AURKB (aurora kinase B) | -1.18 | 0.818 | inactive
POMK (protein O-mannose kinase) | 0.72 | 0.994 | inactive
SOX9 (SRY-box transcription factor 9) | -0.857 | 0.848 | inactive
PRKCG (protein kinase C gamma) | 0.789 | 1 | inactive
CRKL (CRK like proto-oncogene, adaptor protein) | 0.789 | 1 | inactive
PIP5KL1 (phosphatidylinositol-4-phosphate 5-kinase like 1) | 0.265 | 0.952 | inactive
STK32B (serine/threonine kinase 32B) | -0.828 | 0.851 | inactive
PDK4 (pyruvate dehydrogenase kinase 4) | -0.624 | 0.869 | inactive
PRKACB (protein kinase cAMP-activated catalytic subunit beta) | -0.969 | 0.838 | inactive
FES (FES proto-oncogene, tyrosine kinase) | 0.188 | 0.944 | inactive
CDK8 (cyclin dependent kinase 8) | 0.789 | 1 | inactive
DTYMK (deoxythymidylate kinase) | 0.784 | 1 | inactive
TTK (TTK protein kinase) | -0.249 | 0.904 | inactive

Reprinted from above for reference:
target gene | robust z-score, knock-down alone | viability, DMSO vs non-targeting control (fraction of control) | Call
EPHA10 (EPH receptor A10) | -1.58 | 0.781 | inactive
ROCK2 (Rho associated coiled-coil containing protein kinase 2) | -0.769 | 0.856 | inactive
CREBBP (CREB binding lysine acetyltransferase) | -0.759 | 0.857 | inactive
TYRO3 (TYRO3 protein tyrosine kinase) | 0.789 | 1 | inactive
ACVR1C (activin A receptor type 1C) | 0.789 | 1 | inactive
